Test results reported in patent publication US20070134261A1, “Effectors of innate immunity” (priority 2001, published 2007).
Part of at least one peptide drawing is inferred or uncertain, most often the ends. No end group written: not given here.

Tested on: human CD14+ monocytes
Assay: Human 21K DNA microarrays of CD14+ monocytes from PBMC stimulated with SEQ ID NO: 7 and/or LPS (Tables 69-72)
Assay type: cell-based

## KSRIVPAIPVSLL [SEQ ID NO: 7]
Gene AK2
  Fold Change by LPS + SEQ 7: −1.6 fold
Gene AKAP6
  Fold Change SEQ ID NO: 7: 1.9
Gene AKAP11
  Fold Change SEQ ID NO: 7: 1.7
  Fold Change by LPS + SEQ 7: −1.7 fold
Gene AKAP13 (first entry)
  Fold Change SEQ ID NO: 7: 1.5
Gene AKAP13 (second entry)
  Fold Change SEQ ID NO: 7: −1.7
Gene ALDOB, human monocytes
  Fold Change by LPS + SEQ 7: 15.5 fold
Gene ALOX5, human monocytes
  Fold Change by LPS + SEQ 7: 8.1 fold
Gene ANKH
  Fold Change by LPS + SEQ 7: 1.7 fold
Gene ANKMY1, human monocytes
  Fold Change by LPS + SEQ 7: 5.4 fold
Gene ANKRD5, human monocytes
  Fold Change by LPS + SEQ 7: 12.2 fold
Gene ANKRD10
  Fold Change by LPS + SEQ 7: −1.6 fold
Gene AP4B1
  Fold Change by LPS + SEQ 7: 2.2 fold
Gene APBA3
  Fold Change SEQ ID NO: 7: −1.9
Gene APG10L
  Fold Change SEQ ID NO: 7: 1.7
Gene APOBEC2
  Fold Change by LPS + SEQ 7: 1.9 fold
Gene APOBEC3G
  Fold Change SEQ ID NO: 7: 1.5
Gene APP
  Fold Change by LPS + SEQ 7: −1.6 fold
Gene APRIN
  Fold Change by LPS + SEQ 7: −1.6 fold
Gene AQP9, human monocytes
  Fold Change by LPS + SEQ 7: 2.4 fold
Gene AREG
  Fold Change by LPS + SEQ 7: 1.6 fold
Gene ARF1, human monocytes
  Fold Change by LPS + SEQ 7: 8.8 fold
Gene ARHGDIA
  Fold Change SEQ ID NO: 7: 2.0
  Fold Change by LPS + SEQ 7: 1.9 fold
Gene ARHGEF1, human monocytes
  Fold Change by LPS + SEQ 7: 4.4 fold
Gene ARHGEF19
  Fold Change by LPS + SEQ 7: −1.6 fold
Gene ARID1A
  Fold Change SEQ ID NO: 7: −1.6
Gene ARID3A, human monocytes
  Fold Change by LPS + SEQ 7: 3.9 fold
Gene ARIH1
  Fold Change by LPS + SEQ 7: 2.0 fold
Gene ARL3
  Fold Change by LPS + SEQ 7: −1.7 fold
Gene ARL7
  Fold Change by LPS + SEQ 7: −2.1 fold
Gene ARNT, human monocytes
  Fold Change by LPS + SEQ 7: 35.7 fold
Gene ARRB1
  Fold Change by LPS + SEQ 7: −1.9 fold
Gene ARRB1, human monocytes
  Fold Change by LPS + SEQ 7: 12.0 fold
Gene ARRDC1
  Fold Change by LPS + SEQ 7: −1.6 fold
Gene ARRDC2
  Fold Change SEQ ID NO: 7: 1.7
Gene ARVCF
  Fold Change by LPS + SEQ 7: 1.5 fold
Gene ASPH
  Fold Change SEQ ID NO: 7: −1.6
Gene ASTN2, human monocytes
  Fold Change by LPS + SEQ 7: 3.7 fold
Gene ATCAY
  Fold Change by LPS + SEQ 7: 2.0 fold
Gene ATF1
  Fold Change by LPS + SEQ 7: 1.9 fold
Gene ATP1B1
  Fold Change by LPS + SEQ 7: 2.3 fold
Gene ATP1B4
  Fold Change by LPS + SEQ 7: −1.8 fold
Gene ATP2B1, human monocytes
  Fold Change by LPS + SEQ 7: 3.3 fold
Gene ATP2B4
  Fold Change SEQ ID NO: 7: 2.5
Gene ATP2B4, human monocytes
  Fold Change by LPS + SEQ 7: 2.8 fold
Gene ATP6V1G2
  Fold Change SEQ ID NO: 7: 2.1
Gene ATP6V1H
  Fold Change by LPS + SEQ 7: −1.9 fold
Gene ATP13A3, human monocytes
  Fold Change by LPS + SEQ 7: 2.5 fold
Gene ATR
  Fold Change by LPS + SEQ 7: 1.8 fold
Gene BACH1, human monocytes
  Fold Change by LPS + SEQ 7: 3.5 fold
Gene BATF, human monocytes
  Fold Change by LPS + SEQ 7: 4.3 fold
Gene BAZ2A
  Fold Change SEQ ID NO: 7: 3.1
Gene BAZ2A, human monocytes
  Fold Change by LPS + SEQ 7: 4.5 fold
Gene BDNF
  Fold Change SEQ ID NO: 7: 2.8
Gene BGLAP, human monocytes
  Fold Change by LPS + SEQ 7: 2.4 fold
Gene BID
  Fold Change by LPS + SEQ 7: 2.1 fold
Gene BIRC3
  Fold Change by LPS + SEQ 7: 1.5 fold
Gene BLZF1, human monocytes
  Fold Change by LPS + SEQ 7: 17.6 fold
Gene BNIP1, human monocytes
  Fold Change by LPS + SEQ 7: 34.9 fold
Gene BNIP3L
  Fold Change by LPS + SEQ 7: −1.8 fold
Gene BOK
  Fold Change by LPS + SEQ 7: 2.1 fold
Gene BPAG1
  Fold Change by LPS + SEQ 7: 1.8 fold
Gene BPAG1, human monocytes
  Fold Change by LPS + SEQ 7: 3.2 fold
Gene BRD3
  Fold Change by LPS + SEQ 7: −1.6 fold
Gene BTBD2
  Fold Change SEQ ID NO: 7: 2.1
Gene BTBD12
  Fold Change SEQ ID NO: 7: 1.9
  Fold Change by LPS + SEQ 7: 1.9 fold
Gene BZW2
  Fold Change by LPS + SEQ 7: 1.7 fold
Gene C1orf24
  Fold Change by LPS + SEQ 7: 2.2 fold
Gene C2orf6, human monocytes
  Fold Change by LPS + SEQ 7: 2.3 fold
Gene C5orf5
  Fold Change by LPS + SEQ 7: −2.0 fold
Gene C5orf13, human monocytes
  Fold Change by LPS + SEQ 7: 2.4 fold
Gene C6orf33
  Fold Change by LPS + SEQ 7: −1.8 fold
Gene C6orf80
  Fold Change by LPS + SEQ 7: −1.8 fold
Gene C6orf103, human monocytes
  Fold Change by LPS + SEQ 7: 2.5 fold
Gene C6orf110
  Fold Change by LPS + SEQ 7: −1.6 fold
Gene C6orf123
  Fold Change by LPS + SEQ 7: 2.2 fold
Gene C6orf208
  Fold Change by LPS + SEQ 7: −1.5 fold
Gene C6orf211
  Fold Change SEQ ID NO: 7: 1.6
Gene C7orf16, human monocytes
  Fold Change by LPS + SEQ 7: 2.4 fold
Gene C7orf23
  Fold Change by LPS + SEQ 7: 1.7 fold
Gene C9orf37
  Fold Change by LPS + SEQ 7: −1.5 fold
Gene C10orf46
  Fold Change by LPS + SEQ 7: 1.9 fold
Gene C10orf82
  Fold Change SEQ ID NO: 7: 1.8
Gene C11orf21
  Fold Change by LPS + SEQ 7: −1.6 fold
Gene C12orf4
  Fold Change SEQ ID NO: 7: 1.8
Gene C13orf1, human monocytes
  Fold Change by LPS + SEQ 7: 5.9 fold
Gene C13orf11
  Fold Change SEQ ID NO: 7: 3.3
Gene C13orf11, human monocytes
  Fold Change by LPS + SEQ 7: 4.0 fold
